Laboratory results published in article doi:10.1101/2021.05.25.445488.
Results are given in words; binding and its absence hold for the method and conditions named. In cells and extracts the contact can be indirect. Here binding means that the protein was enriched with, or labelled near, the bait; the list need not be complete. Sequences can lack the tags named with a protein.

By UniProt entry, the sequences of proteins in these tests, tags left out. Where a name states a change or a piece, a line headed by the entry shows the natural chain unless it says otherwise. Chains listed by the source or under a name are the forms on record and can include a tag or linker.
LAP tagged ARL13B V359A, T-REx 293 (Q3SXY8-1, form named): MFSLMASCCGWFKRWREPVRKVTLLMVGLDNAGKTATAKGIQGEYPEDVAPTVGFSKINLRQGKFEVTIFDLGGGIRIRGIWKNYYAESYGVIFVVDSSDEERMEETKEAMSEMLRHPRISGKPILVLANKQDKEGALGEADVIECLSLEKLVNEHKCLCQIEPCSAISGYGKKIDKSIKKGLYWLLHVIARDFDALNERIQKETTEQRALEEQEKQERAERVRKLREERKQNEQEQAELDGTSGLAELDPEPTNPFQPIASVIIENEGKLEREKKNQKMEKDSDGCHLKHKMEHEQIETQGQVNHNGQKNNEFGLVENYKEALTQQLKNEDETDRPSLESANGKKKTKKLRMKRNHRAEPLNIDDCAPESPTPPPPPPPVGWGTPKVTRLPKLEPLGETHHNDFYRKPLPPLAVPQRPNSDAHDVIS

How the values were obtained:
[1] = target: T1, LAP-TULP3 full-length (GFP-TEV-S-tagged), T-REx-293 (human) (UniProt O75386); assay: proximity labelling
T1 sequence: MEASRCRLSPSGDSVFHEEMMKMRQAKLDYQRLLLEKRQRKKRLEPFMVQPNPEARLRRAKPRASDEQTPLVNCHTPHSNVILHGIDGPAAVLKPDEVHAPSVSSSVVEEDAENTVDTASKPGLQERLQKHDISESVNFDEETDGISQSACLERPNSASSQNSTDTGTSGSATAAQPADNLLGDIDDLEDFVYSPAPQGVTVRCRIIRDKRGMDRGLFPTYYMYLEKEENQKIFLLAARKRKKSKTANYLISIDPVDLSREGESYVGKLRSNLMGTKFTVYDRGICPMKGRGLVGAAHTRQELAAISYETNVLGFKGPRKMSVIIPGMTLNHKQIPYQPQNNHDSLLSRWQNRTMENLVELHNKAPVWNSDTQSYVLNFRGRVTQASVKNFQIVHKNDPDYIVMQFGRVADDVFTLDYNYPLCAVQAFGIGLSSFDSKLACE

[2] = target: T2, BirA* tagged TULP3, T-REx 293 (human) (UniProt O75386); assay: proximity labelling
T2 sequence: T1 sequence

| Substance | binding [1] | binding [2] |
| --- | --- | --- |
| BirA*-Flag tagged ARL13B, T-REx-293 (from UniProt Q3SXY8-1 1-428) | binds |  |
| LAP tagged ARL13B V359A, T-REx 293 (from UniProt Q3SXY8-1 1-428) |  | binds |
| LAP tagged ARL13B, T-REx 293 (from UniProt Q3SXY8-1 1-428) |  | binds |
